Two sequences from PMC9209448 can be followed below.

In series [1] the test system is aryl hydrocarbon receptor (AhR), presumed AhR:ARNT complex. The series is described as follows: EMSA. To be noted: nuclear extract of DIMBOA-treated cells; EMSA: LightShift kit, 20 uL, 20 fmol biotinylated probe, 3.5-4 ug nuclear protein, 30 min room temperature, 5% TBE gel in 0.5X TBE; protein in an extract; label: biotin. (Mobility shift assays separate free from complexed probe on a gel.)

Series [2] has the same test system. The series is described as follows: pull-down. To be noted: streptavidin agarose, proteomic detection of AhR, poly dI.dC; pull-down: PBS, 1 mM EDTA, 1 mM DTT, 4 ug poly dI.dC, protease inhibitor, room temperature; protein in an extract; label: biotin.

The exact form of at least one protein or probe is not confirmed. Results from cells or extracts need not show a direct contact. For part of these data: Negatives hold for the conditions tested. For part of these data: At least one verdict was read from the data and is not stated in words by the source.

Take “TATTATTGAACTTCAAAACATAC (double strand) [SfUGT33F28 mutant DNA probe 2 (delta ahr/arnt)]”: the binding result in series [1] is “no binding”.
Turning to “TACGCGTGTTATTGAACTTC (double strand) [SfUGT33F28 canonical DNA probe 1 (wt)]”, the binding result in series [2] and in series [1] was “binds” throughout.
